# PubChem BioAssay AID540276 (National Center for Advancing Translational Sciences (NCATS), 2011)
# Out of some 300,000 compounds screened, about 5,400 (1.8%) were called active. The inconclusive results got no clear call from the source; some entries with a clear call stand among them for comparison. Calls come from the whole dose curve; tested in HEK293 cells. Potencies beside an inconclusive call are fits to weak or partial responses and may not hold up.
# Assay: qHTS for inhibitors of binding or entry into cells for Marburg Virus
# Details: Marburg virus pseudotyped entry inhibition, cell reporter; series mostly up to 37.8 µM
# Potency is the fitted concentration of half-maximal effect.
row,SMILES,Potency
1,BrC(/C=N/N1CCN(Cc2ccccc2)CC1)=C/c1ccccc1,inactive
2,Cn1c(=O)c2c(-c3ccccc3)n3c4ccccc4nc(-c4ccccc4)c3c2n(C)c1=O,inactive
3,Cc1cccc(-n2c(O)c(C=Nc3ccccc3O)c3ccccc3c2=O)n1,"inconclusive: 8.91 µM [inhibitor, partial curve, poor fit]"
4,C[C@]12C=CC(=O)C=C1CC[C@H]1[C@@H]3C[C@@H](O)[C@](O)(C(=O)CO)[C@@]3(C)C[C@H](O)[C@@]12F,"inconclusive: 0.708 µM [inhibitor, full curve]"
5,Cc1c(NC(=O)c2ccc(N(Cc3ccccc3)S(C)(=O)=O)cc2)c(=O)n(-c2ccccc2)n1C,"inconclusive: 10 µM [inhibitor, partial curve]"
6,CCN=c1sc(C(=O)Nc2ccccc2)c(C)n1CC,"inconclusive: 1.41 µM [activator, partial curve, poor fit]"
7,COc1cc(C(=O)NCCC(=O)NC2CCCc3ccccc32)cc(OC)c1OC (stereo not given),"inconclusive: 1.58 µM [inhibitor, partial curve, poor fit]"
8,CC1=NN(c2nc(-c3ccc(C)cc3)cs2)C(=O)C1N=Nc1cccc(O)c1 (stereo not given),"inconclusive: 31.6 µM [activator, single point]"
9,O=C(NNC(=O)c1cc(-c2ccncc2)nc2ccccc12)c1ccccc1F,"inconclusive: 3.55 µM [inhibitor, partial curve, poor fit]"
10,COc1ccc(S(=O)(=O)c2nnn(-c3cc(Cl)c(OC)cc3OC)c2C)cc1,inactive
11,COC(=O)c1ccc(S(=O)(=O)NC(C)(C)C)n1C,"inconclusive: 0.794 µM [inhibitor, single point]"
12,COc1ccc(C(NC(C)=O)c2c(O)ccc3ccccc23)cc1OC (stereo not given),"inconclusive: 0.794 µM [activator, full curve, poor fit]"
13,Cc1sc(NC(=O)CN2C(=O)NC3(CCCC3)C2=O)nc1-c1ccc(F)cc1,"inconclusive: 2.82 µM [inhibitor, single point]"
14,O=C1C=CC(=O)N1CCCCCCN1C(=O)C=CC1=O,"inconclusive: 11.2 µM [inhibitor, partial curve, poor fit]"
15,O=C(Nc1cccc(S(=O)(=O)NC2=NCCCCC2)c1)C1COc2ccccc2O1 (stereo not given),"inconclusive: 5.62 µM [activator, single point]"
16,Cc1onc(-c2ccccc2)c1C(=O)OCc1nnc(-c2ccccc2)o1,inactive
17,c1ccc(-c2nc(-c3cccc4ccccc34)c(Nc3ccc4ccccc4c3)o2)cc1,"inconclusive: 0.376 µM [activator, partial curve, poor fit]"
18,O=C(COc1cccc2ccccc12)N/N=C/c1ccc(Sc2nc3ccccc3s2)o1,inactive
19,CCS(=O)(=O)N1CCCC(C(=O)NCC2CCCO2)C1 (stereo not given),inactive
20,Cc1ccc(CNc2ccc(N3CCOCC3)c(Cl)c2)cc1,inactive

# Another view of part of the listing above.
row | SMILES | Potency
3 | Cc1cccc(-n2c(O)c(C=Nc3ccccc3O)c3ccccc3c2=O)n1 | inconclusive: 8.91 µM [inhibitor, partial curve, poor fit]
4 | C[C@]12C=CC(=O)C=C1CC[C@H]1[C@@H]3C[C@@H](O)[C@](O)(C(=O)CO)[C@@]3(C)C[C@H](O)[C@@]12F | inconclusive: 0.708 µM [inhibitor, full curve]
5 | Cc1c(NC(=O)c2ccc(N(Cc3ccccc3)S(C)(=O)=O)cc2)c(=O)n(-c2ccccc2)n1C | inconclusive: 10 µM [inhibitor, partial curve]
6 | CCN=c1sc(C(=O)Nc2ccccc2)c(C)n1CC | inconclusive: 1.41 µM [activator, partial curve, poor fit]
7 | COc1cc(C(=O)NCCC(=O)NC2CCCc3ccccc32)cc(OC)c1OC (stereo not given) | inconclusive: 1.58 µM [inhibitor, partial curve, poor fit]
9 | O=C(NNC(=O)c1cc(-c2ccncc2)nc2ccccc12)c1ccccc1F | inconclusive: 3.55 µM [inhibitor, partial curve, poor fit]
12 | COc1ccc(C(NC(C)=O)c2c(O)ccc3ccccc23)cc1OC (stereo not given) | inconclusive: 0.794 µM [activator, full curve, poor fit]
14 | O=C1C=CC(=O)N1CCCCCCN1C(=O)C=CC1=O | inconclusive: 11.2 µM [inhibitor, partial curve, poor fit]
17 | c1ccc(-c2nc(-c3cccc4ccccc34)c(Nc3ccc4ccccc4c3)o2)cc1 | inconclusive: 0.376 µM [activator, partial curve, poor fit]

# (further entries)

row,SMILES,Potency
1,COc1ccc(CCNS(=O)(=O)c2ccc(N3CCCC3=O)cc2)cc1,"inconclusive: 14.1 µM [inhibitor, single point]"
2,CCOc1ccc(NC(=O)Cn2cc(C(=O)c3ccc(CC)cc3)c(=O)c3cc(C)ccc32)cc1,inactive
3,CC(=O)c1c(C)[nH]c(C(=O)OCC(=O)Nc2cc(S(=O)(=O)N3CCCC3)ccc2Cl)c1C,"inconclusive: 7.08 µM [inhibitor, full curve, poor fit]"
4,CCn1nc([N+](=O)[O-])c(C(C#N)c2nc3cc(C(F)(F)F)ccc3s2)c(Cl)c1=O (stereo not given),inactive
5,Clc1ccc(-c2nnc(-c3ccccc3)o2)c(Cl)c1,"inconclusive: 20.6 µM [inhibitor, partial curve, poor fit]"
6,O=C(Nc1ccc(NC(=O)c2ccco2)c(Cl)c1)c1ccc2c(c1)OCCO2,"inconclusive: 35.5 µM [inhibitor, single point]"
7,CSc1ccc(CNCCCN(C)C)cc1,"inconclusive: 2.51 µM [inhibitor, full curve, poor fit]"
8,COc1ccc(OCCN2CCN(S(=O)(=O)c3ccccc3C(F)(F)F)CC2)cc1,"inconclusive: 0.794 µM [inhibitor, full curve, poor fit]"
9,CCc1cccc2c(C(=O)COC(=O)c3cnc(C)cn3)c[nH]c12,"inconclusive: 35.5 µM [activator, single point]"
10,COc1ccccc1/C=C/C=C(\C#N)C(=O)NC(C)c1ccccc1 (stereo not given),"inconclusive: 35.5 µM [inhibitor, single point]"
11,CCOc1cccc(C(=O)Nc2ccc(S(=O)(=O)N(Cc3ccccc3)c3ccccc3)cc2)c1,"inconclusive: 11.2 µM [inhibitor, partial curve, poor fit]"
12,CCCNC(=O)NC(=O)COC(=O)c1oc2ccc(OCC)cc2c1C,"inconclusive: 2.24 µM [activator, full curve, poor fit]"
13,CN(Cc1cccc(-n2cccn2)c1)C(=O)CCc1nnc(C2CCCCC2)o1,"inconclusive: 12.6 µM [activator, partial curve]"
14,COc1ccc(N/C=C(\C2OC(=O)c3ccccc32)[N+](=O)[O-])cc1 (stereo not given),"inconclusive: 35.5 µM [inhibitor, single point]"
15,Cc1ccc(C(=O)Nn2cnnc2)cc1S(=O)(=O)N1CCOCC1,"inconclusive: 4.47 µM [inhibitor, partial curve, poor fit]"
16,C=CCNc1nc(-c2ccc([N+](=O)[O-])cc2)cs1,"inconclusive: 0.112 µM [activator, full curve, poor fit]"
17,CCCCn1c(=O)[nH]c(=O)c2c1nc(Cn1ncc(Cl)c(Cl)c1=O)n2CCC,"inconclusive: 11.2 µM [inhibitor, partial curve, poor fit]"
18,CC(=O)c1ccc(NC(=O)c2noc3c2CCc2ccccc2-3)cc1,"inconclusive: 5.62 µM [activator, single point]"
19,CC(/C=N/NC(=O)c1sc(N)nc1C)=C\c1ccccc1,inactive
20,CS(=O)(=O)N1CCN(c2ccccc2NC(=O)CSc2nnc(-c3ccco3)o2)CC1,"inconclusive: 3.16 µM [activator, full curve, poor fit]"
